Measured values taken from patent US20230233532A1, “SPHINGOSINE-1-PHOSPHATE RECEPTOR 1 AGONIST AND LIPOSOMAL FORMULATIONS THEREOF” (The Penn State Research Foundation, priority 2020, published 2023).
Some entries share one result that the patent states for a list of compounds.

Tested on: S1PR1 in HEK293A-S1P1-GFP cells
Assay: S1PR1 internalization assay
Type: cell-based
Settings: 5 μM
Description: […] cells were plated on collagen-coated coverslips (30). Cells were cultured overnight in DMEM with 2% charcoal-stripped serum. Prior to the experiment, cells were cultured in serum-free DMEM for 1.5 hours.

SMILES | cells with internalized S1PR1 in the cytoplasm
Oc1cccc(-c2noc(-c3cc(-c4ccccc4)c(C(F)(F)F)s3)n2)c1 [Compound I, 3-[5-(4-Phenyl-5-trifluoromethyl-thiophen-2-yl)-[1,2,4]oxadiazol-3-yl]-phenol] | more than 75%
FC(F)(F)c1cccc(-c2noc(-c3cc(-c4ccccc4)c(C(F)(F)F)s3)n2)c1 [SEW2871] | more than 75%
